# “And” between values parts separate entries of the source, which are not always exact repeats. Equal values may be shown once. In all, about 340,000 compounds went through this assay and about 170 (0.05%) were called active. This list was built around the results that the source calls inconclusive (neither active nor inactive); the mix of calls is not that of the screen. Calls come from the whole dose curve; as a rule, active = well fitted inhibition curve with a large enough effect in the signal ratio, with a control signal flat (not every such curve was filed as active); inconclusive = small, poorly fitted or top-dose-only effect, or effect the other way, or a change in a side signal; inactive = flat fitted curve, though single readings scatter; the % refers to the signal ratio. Potencies of inconclusive entries are doubtful fits and often do not repeat.
# Assay: qHTS Assay to Find Inhibitors of Chronic Active B-Cell Receptor Signaling;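 for activity change, negative = inhibition: plate controls were basal doxycycline-induced cells for no effect and cells given 10 µM MG132 for full effect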
# Conditions: ABC-DLBCL IkBa-CBG/CBR reporter, luminescence ratio (green luciferase fused to IkBa over red control in TMD8 lymphoma cells), 4 h; activity change, negative = inhibition: at 46.1 µM (top of the series)
# Text: NIH Molecular Libraries Probe Production Network [MLPCN] NIH Chemical Genomics Center [NCGC] MLPCN Grant: 1 R03 DA031086-01A1 PI Name: Dr. R. Eric Davis NCGC Assay Overview: Diffuse large B-cell lymphoma (DLBCL) is the most common category of non-Hodgkin lymphoma, with ~20,000 new cases per year in the United States. DLBCL should be regarded as a collection of different neoplasms. Microarray gene expression analysis has defined two principal types of DLBCL, named for their similarity to normal B cell stages or activation states: a germinal center B-cell (GCB) type, and an activated B-cell (ABC) type. In ABC-DLBCL, a constitutive high-level activity of the NF-kappaB family of transcription factors has been observed (1) and NF-kappaB target genes are more highly expressed in ABC primary tumors than in GCB tumors. Functional studies have shown a constitutive high-level activity of the IkappaB (inhibitor of kappa-B) kinase (IKK) complex. […] Further analysis of DLBCL primary tumors for NF-kappaB target gene expression imply that although CARD11 is required for constitutive IKK activity in all ABC-DLBCL lines, mutations in CARD11 may be the root cause of IKK activation only in lines or tumors with such mutations. In other words, CARD11 mutations may explain NF-kappaB activation in only 10% of ABC-DLBCL cases. […] This process has been termed 'chronic active BCR signaling' (CABS). The goal of this screen is to find small-molecule inhibitors of the CABS pathway found in ABC-DLBCL lines using a cell-based assay that measures IkappaBalpa stability, which has already been extensively validated in the OCI-Ly3 line (PubChem AID:445; REF: 4). […] The assay uses green (CBG68) and red (CBR) emitting beetle luciferases [Chroma-GloTM developed by Promega Corp.] where the green luciferase is fused to IkappaBalpha and the red luciferase is present in its native state. Both luciferase genes are stably present in the TMD8 human ABC DLBCL cell line, but their expression is under the control of tetracycline-inducible promoters. Following the addition of doxycycline to induce expression of the luciferases, the green luminescence in control cultures rises only slowly because the CBG fusion partner IkappaBalpha is targeted by IKK activity for rapid degradation. In contrast, green luminescence rises rapidly in the presence of proteasome inhibitors or IKK inhibitors. The rise in red luminescence of CBR is not affected by proteasome or IKK inhibitors, and serves as normalization for cell number and nonspecific effects. Compounds were screened as a concentration-titration series that ranged from 46 uM to 3 nM.
# NCGC Assay Protocol Summary: Cells were seeded in 1536-well plates at 5000 cells/4uL in IMDM medium containing 0.5% FBS, w/o phenol red, 1% penicillin/streptomycin. Then, 23 nL of compounds or DMSO were delivered to each well using a pin tool. One uL 20ng/ml doxycycline was then dispensed into white solid 1536-well plates and the plates were incubated at 37C/5% C02 in a cell incubator for 4 hrs. Then 4 uL luminescent substrate mix (in-house prepared: 150 mM Tris-Cl, pH 7.6, 3 mM MgCl2, 1% Triton X-100, 5 mM DTT, 0.2 mM CoA, 0.15 mM ATP, 5 mM D-luciferin, final concentrations) was added to each well. The plate was incubated at r.t. for 10-15 min. The plates were measured on a ViewLux plate reader for green luminescence (540/20 nm filter) and red luminescence (618/8 nm filter). The green and red luminescent signals were corrected for red and green luminescence filter overlap using previously determined filter calibration constants (determined using the procedure outlined in the Promega Technical Manual; REF 4). The %Activity was determined from the ratio of corrected green/red luminescent values. MG132 were used as control. […] Red luminescent %Activity was normalized to the difference between red luminesence in basal cells (0%Activity) and zero luminescence (-100% Activity). […]
# Potency is the fitted concentration of half-maximal effect.
SMILES,Potency,"activity change, negative = inhibition"
O=C(O)c1ccc(CSc2nc3ccccc3o2)cc1,"inconclusive: 22.4 µM [cytotoxic, partial curve]",–
CN(Cc1nc(-c2cccc(Cl)c2)no1)C1CCOCC1,–,inconclusive: 14.4%
CCOC(=O)c1c(C)[nH]c(N=Nc2ccccc2C)c1C,"inconclusive: 23.1 µM [falling, partial curve]",–
Cc1c(Cl)ccc2sc(N3CCN(C(=O)c4ccco4)CC3)nc12,–,inconclusive: 11.1%
Nc1c(-c2ccccc2)cnn1-c1ccccc1,"inconclusive: 22.4 µM [falling, partial curve]",–
COc1cccc(-n2cc(CN(C)Cc3nc(Cc4ccccc4)no3)cn2)c1,"inconclusive: 5.01 µM [rising, partial curve]",–
COc1cc(-c2noc(C)c2C#Cc2ccccn2)cc(OC)c1OC,"inconclusive: 7.94 µM [falling, partial curve]",–
Cc1nc2nc[nH]c2cc1Br,–,inconclusive: 0.816%
Cc1ccc(CCNC(=O)CN(c2ccc(C)cc2)S(=O)(=O)c2c(C)noc2C)cc1,–,inactive: -0.305%
COc1cc(C(=O)OCC(=O)N(CC(C)C)C2CCS(=O)(=O)C2)ccc1OCC(C)C (stereo unspecified),"inconclusive: 20.6 µM [falling, partial curve]",–
Cc1cc(Nc2cccc(Cl)c2)n2ncnc2n1,–,inconclusive: -3.66%
C[C@@]12C(=O)Nc3ccccc3C(=O)N1[C@H]1c3cc(Br)ccc3OC[C@@H]1[C@@H]2c1ccccc1,–,inconclusive: 18.5%
O=C(c1ccc(S(=O)(=O)NCC2CCCO2)cc1)N1CCN(c2cccc(Cl)c2)CC1 (stereo unspecified),–,inactive: 1.94%
COc1ccc2c(c1)CCc1c(C(=O)NCC(C)C)noc1-2,"inconclusive: 25.1 µM [falling, single point]",–
COc1ccccc1-c1nc(-c2ccc(Br)o2)no1,"inconclusive: 3.66 µM [rising, partial curve, poor fit] and inconclusive: 3.55 µM [rising, partial curve, poor fit]",–
CCOc1cnc(-c2ccc(Cl)cc2)o1,–,inconclusive: 21.2%
O=C(CSc1nncs1)Nc1ccc(Cl)cc1C(F)(F)F,–,inconclusive: 1.38%
NC1=NC[C@H](Cc2ccc(O)cc2)N1CCCCC1CCCCC1,"inconclusive: 15.8 µM [falling, partial curve, poor fit]",–
CN(CC(=O)Nc1ccccc1Br)C(=O)c1cc([N+](=O)[O-])ccc1N1CCOCC1,–,inactive: 2.26%
COc1ccc(-c2cn(-c3ccccc3)c3[n+]2CCS3)cc1,–,inactive
CC(=O)Nc1ccc(C)c(NC(=S)Nc2ccc(F)cc2)c1,–,inconclusive: 8.72%

SMILES,Potency,"activity change, negative = inhibition"
CCCCCc1cc(=O)oc2c(C(CCN3CCN(c4ccccc4)CC3)c3ccc(N(C)C)cc3)c(OC)cc(OC)c12 (stereo unspecified),–,inactive: -2.02%
CC(=O)c1cccc(Nc2nc(N3CCOCC3)nc(N3CCOCC3)n2)c1,"inconclusive: 1.41 µM [falling, partial curve, poor fit]",–
CCOc1ccc(C2Nc3ccccc3C(CC)(CC)O2)cc1 (stereo unspecified),–,inconclusive: 3.03%
COc1ccc(/C=C/C(=O)Nc2ccccc2C)cc1S(=O)(=O)N1CCOCC1,"inconclusive: 7.08 µM [falling, partial curve, poor fit]",–
Cn1c(=O)c2c(nc(SCCN3CCCCC3)n2Cc2ccc(Cl)cc2)n(C)c1=O,–,inactive: 2.03%
COc1ccc(Nc2nc(C)cc(C)c2C#N)c(OC)c1,–,inconclusive: 5.47%
CCn1c2nc(SCCN3CCOCC3)nnc2c2cc(C)cc(C)c21,–,inconclusive: 3.62%
Cc1ccc(-c2csc(N(Cc3ccco3)C(=O)c3cccs3)n2)cc1,–,inconclusive: 28.1%
Nn1c(SCC(=O)Nc2ccccc2F)nc2ccccc2c1=O,–,inactive: -0.94%
COc1ccc(NC(=O)CSC2CC(=O)N(c3ccc4c(c3)OCCO4)C2=O)cc1 (stereo unspecified),–,inconclusive: -12.4%
Cc1cccc(C(=O)NNC2=C(C(=O)C(F)(F)F)CCC2)c1O,–,inactive: -18.5%
Cc1ccccc1NC(=O)CSc1nnc(-c2ccccc2)n1-c1ccccc1,–,inactive: 11.5%
Cc1cccc(C)c1NC(=O)CN1C(=O)S/C(=C\c2cccn2-c2cccc(C(=O)O)c2)C1=O,–,inactive: -0.207%
CCOc1ccc(C(=O)N/N=C(\c2ccccc2)c2ccccn2)cc1,–,inactive: -8.79%
CCN(C(=O)COC(=O)c1cc(-c2ccccc2)nc2ccc(Br)cc12)C1CCS(=O)(=O)C1 (stereo unspecified),–,inactive: -0.268%
Cc1c(C(=O)NC2CCS(=O)(=O)C2)oc2ccccc12 (stereo unspecified),–,inactive: 9.83%
CN1CCN(CC(O)COc2ccccc2)CC1 (stereo unspecified),–,inactive: 0.917%
CCOC(=O)c1c(NC(=O)CN2CCN(C)CC2)sc(C(=O)Nc2ccccc2)c1C,–,inconclusive: -0.142%
CC(=O)Oc1ccc(NC(=O)CCC2CCCCC2)c(C(=O)O)c1,"inconclusive: 25.9 µM [rising, single point]",–
COc1ccc(CCNC(=O)C(=O)NN=C2CCCCCCC2)cc1OC,–,inconclusive: -4.41%
O=C1NC(c2ccc(Cl)cc2)Nc2ccccc21 (stereo unspecified),–,inactive: -16.1%

SMILES,Potency,"activity change, negative = inhibition"
Cc1cc(NC(=O)CCSc2nc(-c3ccco3)cc(C(F)(F)F)n2)n(-c2ccccc2)n1,–,inconclusive: 10.6%
CCn1nc(C(=O)OC2CCOC2=O)c2ccccc2c1=O (stereo unspecified),–,inconclusive: -1.2%
Cc1cc(=O)[nH]c(SCCCOc2ccc3c(c2)CCC3)n1,–,inconclusive: 21.3%
Cc1ccc(NC(=O)N2CCCN(Cc3ccc(F)cc3)C2)cc1C,–,inconclusive: -7.37%
CC(Sc1nc2ccccc2c(=O)n1CC1CCCO1)C(=O)N(C)Cc1ccccc1 (stereo unspecified),–,inactive: 4.95%
COC(=O)c1cc(OC)c(OC)cc1NC(=O)CN1C(=O)c2ccccc2C1=O,"inconclusive: 2.82 µM [falling, full curve, poor fit]",–
COc1ccc(/C=C2\CCc3ccccc3C2=O)cc1Cn1cccn1,"inconclusive: 29.1 µM [falling, single point]",–
Nc1nc(Cl)nc(N(c2ccccc2)c2ccccc2)n1,"inconclusive: 10.3 µM [falling, partial curve]",–
CCOc1ccc(Br)cc1/C=N/NC(=O)c1ccncc1,–,inconclusive: -12%
O=[N+]([O-])c1cc([N+](=O)[O-])c2n[nH]c(-c3ccccc3)c2c1,–,inconclusive: 6.68%
CSCCC(NC(=O)c1ccccc1Br)C(=O)NCc1ccc(F)cc1 (stereo unspecified),–,inconclusive: 2.11%
CC1C(=O)Nc2ccc(S(=O)(=O)N3CCN(c4ccccc4F)CC3)cc2NC1=O (stereo unspecified),"inconclusive: 0.447 µM [falling, partial curve, poor fit]",–
C1=C(CCNc2ncnc3c2cnn3-c2ccccc2)CCCC1,"inconclusive: 0.517 µM [rising, full curve, poor fit]",–
O=C(Nc1nc(-c2ccccc2)c(-c2ccccc2)o1)c1ccc(F)cc1,–,inconclusive: -1.97%
Cc1csc(NC(=O)CSc2nsc(SCC(=O)Nc3nc(C)cs3)c2C#N)n1,–,inconclusive: -20%
COc1ccc(C(=O)Nc2nc(CC(=O)NCCc3ccccc3)cs2)cc1,–,inactive: -0.0597%
CCOC(=O)CN1CC23C=CC(O2)C(C(=O)O)C3C1=O (stereo unspecified),–,inconclusive: 18.2%
Cc1cccc(NC(=O)CCC(=O)N/N=C/c2ccc(O)cc2O)c1,–,inconclusive: -7.19%
CN(O)/C=C1\C(=O)Nc2ccccc21,–,inactive: 5.51%
COC(=O)[C@]1(C)N[C@H](CN(C)C(=O)Nc2ccc(OC)cc2)[C@@H]2C(=O)N(Cc3ccccc3)C(=O)[C@@H]21,–,inactive: -1.21%
CN(C)c1cccc(C(=O)N/N=C/c2ccccc2F)c1,"inconclusive: 11.2 µM [falling, partial curve]",–

# Entries from the list above that contain a cyano group:
SMILES,Potency,"activity change, negative = inhibition"
COc1ccc(Nc2nc(C)cc(C)c2C#N)c(OC)c1,–,inconclusive: 5.47%
Cc1csc(NC(=O)CSc2nsc(SCC(=O)Nc3nc(C)cs3)c2C#N)n1,–,inconclusive: -20%

# Next part.

SMILES,Potency,"activity change, negative = inhibition"
O=C(CSc1cn(CCNC(=O)c2cccs2)c2ccccc12)NCc1ccccc1,–,inconclusive: 3%
CCOc1ccc(NC(=O)CN(C)C(=O)c2ccccc2Cc2ccccc2)cc1OCC,–,inconclusive: -2.75%
COc1cc2nc(SCC(=O)NCc3ccco3)n(Cc3ccc(Cl)cc3)c(=O)c2cc1OC,–,inactive: 13.4%
COc1ccc(N(CC(=O)Nc2ccccc2OC)S(=O)(=O)c2ccc(NC(C)=O)cc2)cc1,"inconclusive: 25.1 µM [falling, single point]",–
O=C1NC(=NCc2ccccc2)S/C1=C/c1ccc(O)cc1,–,inconclusive: -25.9% [cytotoxic]
CN1CCN(CC(O)c2ccccc2)CC1 (stereo unspecified),–,inactive: 4.65%
CCOC(=O)c1c(NC(=O)c2ccccc2)sc2c(O)c(CN(CC)CC)ccc12,–,inconclusive: 0.473%
Cc1ccc(SCc2c(C(=O)N/N=C/c3ccoc3)nnn2-c2nonc2N)cc1,–,inactive: 7.38%
CCCCN(CC)C(=O)c1oc2ccc(S(=O)(=O)N3CCCC3)cc2c1C,"inconclusive: 5.62 µM [falling, single point]",–
Cn1c(NC(=O)c2ccccc2F)cc(=O)n(C)c1=O,–,inconclusive: 32.5%
Cc1cccc(NC(=S)N(CCN2CCOCC2)Cc2cc3cc4c(cc3[nH]c2=O)OCO4)c1,–,inactive: -8.63%
C=CCN1C(=O)C2C3CC(=O)C(c4ccccc43)C2C1=O (stereo unspecified),–,inconclusive: 4.98%
CCN(CC(=O)Nc1ccc(Br)cc1F)CC(=O)NC1CCS(=O)(=O)C1 (stereo unspecified),–,inactive: -0.49%
O=C(OCC(=O)c1ccc(Cl)s1)c1ccc(CO)cc1,–,inactive: -0.0772%
O=C(Nc1ccc2nn(-c3ccccc3)nc2c1)c1cccnc1,–,inactive: 10.2%
Cc1ccc(C(=O)CSc2nc(N)cc(=O)[nH]2)cc1C,–,inactive: 2.02%
COc1cccc(C(=O)NCCS(=O)(=O)N2CCCC2)c1,–,inconclusive: 9.78%
c1ccc2[nH]c(-c3ccnc4ccccc34)nc2c1,"inconclusive: 2.06 µM [falling, partial curve, poor fit] and inconclusive: 20 µM [falling, partial curve, poor fit]",–

# Reference: PubChem BioAssay AID493014 (National Center for Advancing Translational Sciences (NCATS), 2011)
